According to doi:10.1101/2025.11.07.687288:
Like-named read-outs stand apart in the source and are kept apart here. Results are given in words; binding and its absence hold for the method and conditions named. In cells and extracts the contact can be indirect. Some results given as binding are weak or reduced against the parent protein; the word gives no strength.

Sequences of proteins named here, by UniProt entry; tags and fusion partners are left off. Residues count along the entry.
UniProt F1PAA9, residues 157-885: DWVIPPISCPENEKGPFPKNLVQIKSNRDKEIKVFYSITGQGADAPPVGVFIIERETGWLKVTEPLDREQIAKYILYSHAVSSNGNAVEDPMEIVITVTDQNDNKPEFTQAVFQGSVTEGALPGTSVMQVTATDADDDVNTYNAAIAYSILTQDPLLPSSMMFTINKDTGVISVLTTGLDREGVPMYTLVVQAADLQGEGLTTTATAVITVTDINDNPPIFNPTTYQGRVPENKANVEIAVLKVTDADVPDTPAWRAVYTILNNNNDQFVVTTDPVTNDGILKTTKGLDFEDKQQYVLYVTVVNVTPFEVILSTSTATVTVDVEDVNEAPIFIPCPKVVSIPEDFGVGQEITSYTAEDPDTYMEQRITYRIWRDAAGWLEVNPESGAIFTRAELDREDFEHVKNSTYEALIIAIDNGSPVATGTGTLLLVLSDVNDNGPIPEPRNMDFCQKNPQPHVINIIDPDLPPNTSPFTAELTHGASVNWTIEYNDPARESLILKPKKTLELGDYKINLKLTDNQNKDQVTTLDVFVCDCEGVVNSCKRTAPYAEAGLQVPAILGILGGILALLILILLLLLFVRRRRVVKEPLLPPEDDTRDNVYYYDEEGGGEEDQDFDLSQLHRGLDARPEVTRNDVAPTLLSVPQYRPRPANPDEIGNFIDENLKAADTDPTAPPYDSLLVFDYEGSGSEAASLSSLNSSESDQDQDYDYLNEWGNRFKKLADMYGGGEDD

Key:
[1] = biological target: E-cadherin, wild type, as the Dimerization Activated TurboID pair (WT-DAT: EcadN and EcadC) (UniProt F1PAA9); assay: split reporter
[2] = biological target: E-cadherin, wild type, as the Dimerization Activated TurboID pair (WT-DAT: EcadN and EcadC) (UniProt F1PAA9); assay: split reporter; remark: listed apart in the source

Substance: E-cadherin, wild type, as the Dimerization Activated TurboID pair (WT-DAT: EcadN and EcadC) (from UniProt F1PAA9) (receptor)
- binding [1]: binds
- binding [2]: binds
